# PubChem BioAssay AID1159578 | Peter MacCallum Cancer Centre | 2015
# Test: 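Genome-wide hunt for genes controlling movement of lymphatic endothelial cells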 (primary screen)
# System: human lymphatic endothelial cells
# Reagent: siRNA pool against human genes, 40 nM
# Time to read-out: 48 h after transfection
# Measurement: 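High-content imaging of dye-stained cells in a scratch assay measures filled wound area and nuclei per well; duplicate means given as ratio to mock and robust z-score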
# Reading the numbers: migration robust z-score: higher = faster migration into the scratch; nuclei per well: higher = more cells in the well
# Rule for the call: 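Pools averaging fewer than 3300 nuclei are never called; remaining pools count as changed when migration robust z lies outside -2 to 2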
# Calls: active = migration changed; inactive = no migration change, or too few cells
# The whole screen tested about 18,000 reagents; shown is an unselected part. About 1,030 of them (5.7%) were called active. 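Inactive calls also include pools with fewer than 3300 nuclei, whose migration was not assessed.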 Raw values are not corrected between plates. Further read-outs or replicates are left out here. Reagent sequences are not shown.
The opening 3 records, ahead of the listing:
target gene,migration robust z-score,"nuclei per well, duplicate mean",Outcome
AMZ2 (archaelysin family metallopeptidase 2),-0.1,6244,inactive
REEP2 (receptor accessory protein 2),-0.92,5662,inactive
CDK13 (cyclin dependent kinase 13),-4.41,3479,active

Results, from the first entry:
target gene,migration robust z-score,"nuclei per well, duplicate mean",Outcome
AMZ2 (archaelysin family metallopeptidase 2),-0.1,6244,inactive
REEP2 (receptor accessory protein 2),-0.92,5662,inactive
CDK13 (cyclin dependent kinase 13),-4.41,3479,active
GDF3 (growth differentiation factor 3),-2.47,5054,active
ZNF680 (zinc finger protein 680),-0.56,5564,inactive
SSTR3 (somatostatin receptor 3),0.62,6376,inactive
TRPC4AP,0.2,7211,inactive
FCER1G (Fc epsilon receptor Ig),-0.16,5752,inactive
"WDSUB1 (WD repeat, sterile alpha motif and U-box domain containing 1)",0.96,5966,inactive
TSPY2 (testis specific protein Y-linked 2),-0.9,4400,inactive
"GBE1 (1,4-alpha-glucan branching enzyme 1)",0.34,4761,inactive
"NBPF7P (NBPF member 7, pseudogene)",-0.43,4116,inactive
GABBR1 (gamma-aminobutyric acid type B receptor subunit 1),0.7,6942,inactive
KRTAP5-8 (keratin associated protein 5-8),-0.68,6038,inactive
SMAD3 (SMAD family member 3),0.08,5320,inactive
SPICE1 (spindle and centriole associated protein 1),-2.87,5005,active
PGS1 (phosphatidylglycerophosphate synthase 1),-0.57,5906,inactive
FRG2B (FSHD region gene 2 family member B),-0.33,5246,inactive
GRIA4 (glutamate ionotropic receptor AMPA type subunit 4),0.34,5911,inactive
KDELR1 (KDEL endoplasmic reticulum protein retention receptor 1),0,5712,inactive
YIPF4 (Yip1 domain family member 4),0.32,6031,inactive
TTLL11 (tubulin tyrosine ligase like 11),-1.27,3473,inactive
DLX2 (distal-less homeobox 2),0.08,6549,inactive
NTNG2 (netrin G2),-0.03,5223,inactive
RNF148 (ring finger protein 148),0.7,6284,inactive
CCNG1 (cyclin G1),0.62,6736,inactive
BRIP1 (BRCA1 interacting DNA helicase 1),-0.94,5644,inactive
BLOC1S2 (biogenesis of lysosomal organelles complex 1 subunit 2),-0.88,5956,inactive
DNAJC21 (DnaJ heat shock protein family (Hsp40) member C21),0.57,5325,inactive
TENM2 (teneurin transmembrane protein 2),0.28,6784,inactive
KIRREL1 (kirre like nephrin family adhesion molecule 1),-0.05,6732,inactive
PRR36 (proline rich 36),0.23,7024,inactive
KCNH2 (potassium voltage-gated channel subfamily H member 2),-5.65,2083,inactive
SPDEF (SAM pointed domain containing ETS transcription factor),0.11,6732,inactive
ATG10 (autophagy related 10),-1.42,5622,inactive
LYZL4 (lysozyme like 4),-1.15,4255,inactive
BIRC8 (baculoviral IAP repeat containing 8),0.02,6501,inactive
TTC4 (tetratricopeptide repeat domain 4),-0.86,5978,inactive
CYB561D2 (cytochrome b561 family member D2),-0.42,5300,inactive
TMEM229B (transmembrane protein 229B),1.08,6577,inactive
TIMM21 (translocase of inner mitochondrial membrane 21),1.5,6351,inactive
SLCO5A1,-0.78,5264,inactive
TMEM71 (transmembrane protein 71),-2.44,5058,active
ZNF630 (zinc finger protein 630),0.2,5256,inactive
TMSB4XP8 (TMSB4X pseudogene 8),0.38,5758,inactive
TIMM8B (translocase of inner mitochondrial membrane 8 homolog B),1.46,5293,inactive
IL1RN (interleukin 1 receptor antagonist),0.34,5899,inactive
LURAP1L (leucine rich adaptor protein 1 like),1.47,7388,inactive
CYYR1 (cysteine and tyrosine rich 1),-1.19,5082,inactive
PDZK1IP1 (PDZK1 interacting protein 1),-1.8,3807,inactive
SACK1C (scaffolding CK1 anchoring protein C),-0.28,6806,inactive
ULK4 (unc-51 like kinase 4),0.24,4402,inactive
LRFN4,-2.58,6150,active
GDF6 (growth differentiation factor 6),3.09,7057,active
TTC32 (tetratricopeptide repeat domain 32),-0.14,5294,inactive
SFTPC (surfactant protein C),1.16,6992,inactive
BAIAP2L2 (BAR/IMD domain containing adaptor protein 2 like 2),0.98,5608,inactive
